Measured data: PubChem BioAssay AID504786 (Drosophila RNAi Screening Center, 2011)

Aim: 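Positive regulators of HIF-driven reporter output in Drosophila cells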 (primary screen)
Cell system: Drosophila S2 cells with a stable HIF luciferase reporter
Knock-down reagent: long dsRNA against Drosophila genes, about 0.2 µg dsRNA per well of a 384-well plate
Duration: three days of knock-down, then 20 h of DFO before reading
Treatment: desferrioxamine (DFO) at 100 µM, an iron chelator that mimics hypoxia, for 20 h
Measurement: 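Firefly luciferase driven by the mouse ldh-a hypoxia-response element, measured after 20 h of 100 µM DFO; z-scores per plate, higher means more signal lost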
Direction: z-score: higher = stronger loss of HIF reporter signal
The deposit covers about 21,000 reagents; below is an unselected part of those that have a named target and a result. 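Primary screen; positive scores mean lost reporter signal, so the sign may be inverted from the usual convention.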

| target gene | dsRNA | z-score, replicate 1 | z-score, replicate 2 | z-score, replicate 3 | z-score, replicate 4 |
| --- | --- | --- | --- | --- | --- |
| CG11771 | DRSC14379 | -0.2 | -0.2 | – | – |
| sisA | DRSC20374 | -0.3 | -0.4 | – | – |
| l(3)04053 | DRSC11640 | -0.3 | -0.5 | 0.2 | -0.3 |
| fzr | DRSC18781 | -0.4 | 0 | – | – |
| Syt7 | DRSC17130 | -0.4 | -0.7 | – | – |
| Syt7 | DRSC17159 | -0.4 | -0.5 | – | – |
| CG14818 | DRSC18548 | -0.4 | 0.3 | – | – |
| SamDC | DRSC03429 | -0.4 | -0.3 | – | – |
| CG10953 | DRSC06021 | -0.3 | -0.4 | – | – |
| U2af50 | DRSC20297 | 4 | 3.5 | – | – |
| hrm | DRSC04853 | 0 | -0.8 | – | – |
| Tspo | DRSC00533 | -0.3 | -0.1 | – | – |

The list goes on; the last 3 above are carried over.
| target gene | dsRNA | z-score, replicate 1 | z-score, replicate 2 | z-score, replicate 3 | z-score, replicate 4 |
| --- | --- | --- | --- | --- | --- |
| U2af50 | DRSC20297 | 4 | 3.5 | – | – |
| hrm | DRSC04853 | 0 | -0.8 | – | – |
| Tspo | DRSC00533 | -0.3 | -0.1 | – | – |
| RpL34a | DRSC15964 | -0.5 | 0.3 | – | – |
| CG15529 | DRSC15066 | 0.2 | 0.7 | – | – |
| Bgb | DRSC08148 | -0.2 | 0.1 | – | – |
| Ugt303B1 | DRSC15141 | -0.2 | -0.3 | – | – |
| CG4020 | DRSC18337 | -0.2 | 0.1 | – | – |
| Tsp42Ep | DRSC06871 | -0.1 | -0.3 | – | – |
| Rpt6R | DRSC15431 | -0.3 | -0.4 | – | – |
| Vha68-1 | DRSC03470 | -0.3 | -0.9 | – | – |
| alpha-Est10 | DRSC12613 | -0.1 | -0.6 | – | – |
| CG17329 | DRSC01926 | 3.3 | -0.1 | – | – |
| Veneno | DRSC16537 | -0.3 | -0.3 | – | – |
| CG13083 | DRSC02187 | -0.4 | -0.6 | – | – |
| CG18343 | DRSC06726 | -0.1 | 0 | – | – |
| mew | DRSC18971 | 0 | 0.3 | – | – |
| mew | DRSC20352 | -0.4 | -0.6 | – | – |
| CG14855 | DRSC14979 | -0.3 | -0.1 | – | – |
| Obp85a | DRSC14362 | -0.3 | 0 | – | – |
| CR14499 (retired record) | DRSC06470 | -0.2 | -0.3 | – | – |
| CG31075 | DRSC16016 | -0.1 | -0.5 | – | – |
| meso18E | DRSC20351 | 1 | -0.6 | – | – |
| CG18179 | DRSC10303 | -0.2 | -0.3 | – | – |
| obst-G | DRSC11103 | -0.2 | 0.2 | – | – |
